Among the data in paper PMC7819943, “Rice protein-binding microarrays: a tool to detect cis-acting elements near promoter regions in rice” are binding signal values, retold here.

Sequences of proteins named here, by UniProt entry; tags and fusion partners are left off.
UniProt Q0JBA9, entry or part of it: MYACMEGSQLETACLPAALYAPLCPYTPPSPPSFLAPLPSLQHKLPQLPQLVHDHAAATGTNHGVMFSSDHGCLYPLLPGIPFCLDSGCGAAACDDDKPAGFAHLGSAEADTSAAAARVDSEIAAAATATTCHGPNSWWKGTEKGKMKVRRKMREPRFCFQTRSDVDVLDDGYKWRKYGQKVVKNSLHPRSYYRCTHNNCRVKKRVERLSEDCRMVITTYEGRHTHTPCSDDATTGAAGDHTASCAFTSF

The other results are listed elsewhere or left out.

The assay has as its target OsWRKY34 (Oryza sativa, UniProt Q0JBA9 1-250). In words: protein-binding microarray (RPBM); PBS, 2% BSA, 51.3 ng/ul salmon testes DNA, 50 uM zinc acetate, 200 nM TF, 25 C, 1 h; high values mean tight binding. The conditions noted are these: protein: recombinant; tags: N-terminal polyhistidine and DsRed monomer fusion (pET32a); label: CyDye5-dUTP incorporated in the synthesized complementary strand; 3' TTTTT single-stranded linker to array surface; dsDNA, one strand shown. A digest of the protocol:
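Binding signal is reported as fluorescence intensity per feature (arbitrary units) from an Axon 4000B scanner. Incubation used 200 nM of each Ni–NTA-purified, N-terminally polyhistidine- and DsRed-fused transcription factor from E. coli BL21-CodonPlus on a double-stranded custom Agilent array for 1 h at 25 °C, with 50 µM zinc acetate in the buffer, followed by washing.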
In the case of “CTTTCGACCAGTTTGGTAACTAACTGCGTTGACTGTACCCCGGAGTCACCTAGTGCAG”, the binding signal was 11000 fluorescence intensity (a.u.).
As to “CACTCACTCGCACCACCGGACCTCACCTGCCGCGGCCATGCGGAGTCACCTAGTGCAG”, the binding signal is 9910 fluorescence intensity (a.u.).
As to “ATCCCATAATTTCATGGTGCTCCGGCCCTGTTGTATCATTCGGAGTCACCTAGTGCAG”, the binding signal is 8300 fluorescence intensity (a.u.).
As to “GCCGCCGACCGCGAGTGACGGCGAGGGCTTTTTCCCCGTGCGGAGTCACCTAGTGCAG”, the binding signal is 8650 fluorescence intensity (a.u.).
Then “AAATGTTACAATCATGCTCCAAACTCACACCTTGTTTAACCGGAGTCACCTAGTGCAG”, with 8540 fluorescence intensity (a.u.); and “ATGTGGTGGTTTGCCTTTAGCTCTTGTTACAATAGGGAGTCGGAGTCACCTAGTGCAG”, with 9830 fluorescence intensity (a.u.); and “ATCAACCATGAACCATCCGCGCCCGCGCACCTCCTCCTCTCGGAGTCACCTAGTGCAG”, with 8100 fluorescence intensity (a.u.).
With “ACGAAATCGCTGGTCCTAGATTCTGCAGAATTGATGTCTTCGGAGTCACCTAGTGCAG”, the binding signal is 8080 fluorescence intensity (a.u.).
Then “TTTTTCTCCTGGAATTTTGTGTCCTGTTTCTCTGTGTGGGCGGAGTCACCTAGTGCAG”, with 9760 fluorescence intensity (a.u.).
As for “TTCTCCGGCTCCGCCGCGCGTTCTACTTCTACCGTTACCGCGGAGTCACCTAGTGCAG”, the binding signal is 14300 fluorescence intensity (a.u.).
Next, “TTTTTGTCTTATTGTTTTGTTTATTTTATTTCAGTTTATTCGGAGTCACCTAGTGCAG”: 9760 fluorescence intensity (a.u.); “AGCTACACAACCTTTGTCCCTCAACTTTGGCTCTATGGCCCGGAGTCACCTAGTGCAG”: 8770 fluorescence intensity (a.u.); “CTCACACCCTCGTCCAGCCAAGGCGGCGGCGCACAGCCAGCGGAGTCACCTAGTGCAG”: 9210 fluorescence intensity (a.u.).
Then “AGTATGTGTTGTCAGTGTTGATATCTCCTCCCTAATCCAACGGAGTCACCTAGTGCAG”, with 8970 fluorescence intensity (a.u.); and “GCTGATGAATGATGTTGTGCAATTATAATTTTCTTCTTCTCGGAGTCACCTAGTGCAG”, with 8360 fluorescence intensity (a.u.); and “ACACTTGCTTTTGTCACTTCTATTTTGGCAGAAACAAACACGGAGTCACCTAGTGCAG”, with 8750 fluorescence intensity (a.u.).
Then “GTCTTTCTCTCTTCAGCATCTCTACTCTCGCTCCATTTCTCGGAGTCACCTAGTGCAG”, with 11500 fluorescence intensity (a.u.).
Turning to “CTGATGCGCCTATGGTTTTGACCTTTCTGGCTTGGACGGACGGAGTCACCTAGTGCAG”, the binding signal was 10100 fluorescence intensity (a.u.).
Then “ACCGTCCCATTTTAAATACAGTTGTGGGTTTTCGTATTTACGGAGTCACCTAGTGCAG”, with 8150 fluorescence intensity (a.u.); and “GAACTAACCTTTGCCACCACTGATCCCTGCTGCTACTCCTCGGAGTCACCTAGTGCAG”, with 9080 fluorescence intensity (a.u.); and “ACTTTATCTTTGCCGCCGGCCGCCACAACTGCTTCTACGGCGGAGTCACCTAGTGCAG”, with 9180 fluorescence intensity (a.u.).
As to “CGTACCTTTTTCGGTTTTCTTTTTTTTTCTTTTTTTTTCTCGGAGTCACCTAGTGCAG”, the binding signal is 8120 fluorescence intensity (a.u.).
Next, “TAGTTAAGAGATGCCGGATGTTTGGTTTTTCGGTCGGGGACGGAGTCACCTAGTGCAG”: 9400 fluorescence intensity (a.u.).
Next, “CACGATGAGGCCATCACCGGCCCACCTCCGCCCGAATCAACGGAGTCACCTAGTGCAG”: 9160 fluorescence intensity (a.u.); “TGATGTGTCCTTTTCTTTTTTTTCTTCTTTTATTTTTCTTCGGAGTCACCTAGTGCAG”: 12300 fluorescence intensity (a.u.); “TTCTTGGCCCGCTAACTCATGATGGTTTTATCCAGATCGTCGGAGTCACCTAGTGCAG”: 9880 fluorescence intensity (a.u.).
In the case of “ATGCTTTTATCTATTGATGTTTTAATTGCAAGCTTTGTATCGGAGTCACCTAGTGCAG”, the binding signal was 9540 fluorescence intensity (a.u.).
Take “GCCGCACCTGCGCCCACACCACACCACCAAACCGAACCCTCGGAGTCACCTAGTGCAG”: the binding signal was 9000 fluorescence intensity (a.u.).
Next, “ACCACCCTTCTATCTCTTCGCGTCCGTCTCCACCCCTTCGCGGAGTCACCTAGTGCAG”: 9630 fluorescence intensity (a.u.).
Then “GTTCTTGCATGCTGTTCTTGTTGATCGAGTGAGAGAGGGGCGGAGTCACCTAGTGCAG”, with 8100 fluorescence intensity (a.u.); and “GTCCCGCCGCCCCGCTCCTGCGCCACCGCCGCCAGTCACTCGGAGTCACCTAGTGCAG”, with 9890 fluorescence intensity (a.u.).
Then “CAGAGTTTTTTGCCCTCTAATCGATTCTTTATCCTCATAGCGGAGTCACCTAGTGCAG”, with 8570 fluorescence intensity (a.u.); and “ATGTAGATGATGGTCTTTTATGAATCTATTTTTCTAATTGCGGAGTCACCTAGTGCAG”, with 8160 fluorescence intensity (a.u.).
Consider “ATGCTCCCTCAATTCAGGGGTAGATCTGCTGGTTGACTTTCGGAGTCACCTAGTGCAG”, for which the binding signal was 8720 fluorescence intensity (a.u.).
Regarding “TCTTAATGGTACAAAGGTTGTCTCTCTGCATTGTGCATACCGGAGTCACCTAGTGCAG”, the binding signal is 9080 fluorescence intensity (a.u.).
Then “GTTGATTTTTTTTAAATATGTTTGACCGTTCGTCTTATTCCGGAGTCACCTAGTGCAG”, with 8600 fluorescence intensity (a.u.).
Next, “GCCTTTTCGCTGCCGTCGCTGGTTGTTCGTGAGCTTCGGACGGAGTCACCTAGTGCAG”: 14300 fluorescence intensity (a.u.); “GCCGCGCCGCCCCAGCCGCCGCCATGCCACCGAAGGCCAACGGAGTCACCTAGTGCAG”: 8320 fluorescence intensity (a.u.).
As to “CATCCTTCTTCATCGCTGCCATATCAGTCCTGAATTCGTTCGGAGTCACCTAGTGCAG”, the binding signal was 9760 fluorescence intensity (a.u.).
As for “CCCCTTCCCCGCCCCGGCACCCGCATTCGCACCCGCACCGCGGAGTCACCTAGTGCAG”, the binding signal was 8710 fluorescence intensity (a.u.).
Regarding “GCCCTCACACAGGGTTCTCTTGCGGGTTGGGGATCTCATCCGGAGTCACCTAGTGCAG”, the binding signal was 12900 fluorescence intensity (a.u.).
Then “CCATTTGTGGTCAACACCTCGTAGCGTCCCTATTTAACGTCGGAGTCACCTAGTGCAG”, with 10000 fluorescence intensity (a.u.).
